Results published in article doi:10.1101/2022.05.18.492435.
Results are given in words; binding and its absence hold for the method and conditions named. Binding seen in cells or lysates may run through a third protein. Here binding means that the protein was enriched with, or labelled near, the bait; the list need not be complete.

Protein sequences, listed by entry. Tags and fused reporters are not part of them.
UniProt Q9BSM1: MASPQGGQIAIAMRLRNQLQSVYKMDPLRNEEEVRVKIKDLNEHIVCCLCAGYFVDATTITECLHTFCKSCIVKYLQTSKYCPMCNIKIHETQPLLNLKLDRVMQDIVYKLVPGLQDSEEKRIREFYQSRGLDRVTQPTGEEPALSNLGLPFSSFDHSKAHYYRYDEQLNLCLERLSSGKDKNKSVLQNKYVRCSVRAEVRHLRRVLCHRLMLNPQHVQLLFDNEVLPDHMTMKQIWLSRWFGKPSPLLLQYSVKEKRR
UniProt P35226: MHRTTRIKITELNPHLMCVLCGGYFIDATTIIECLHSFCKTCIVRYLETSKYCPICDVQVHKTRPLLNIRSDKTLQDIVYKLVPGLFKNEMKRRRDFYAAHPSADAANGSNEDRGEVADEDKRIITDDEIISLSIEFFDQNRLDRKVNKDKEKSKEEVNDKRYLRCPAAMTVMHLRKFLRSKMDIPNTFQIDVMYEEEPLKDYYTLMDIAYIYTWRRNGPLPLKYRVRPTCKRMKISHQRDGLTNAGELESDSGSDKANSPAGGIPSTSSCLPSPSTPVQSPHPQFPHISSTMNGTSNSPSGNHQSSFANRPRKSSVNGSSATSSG
UniProt A5YKK6: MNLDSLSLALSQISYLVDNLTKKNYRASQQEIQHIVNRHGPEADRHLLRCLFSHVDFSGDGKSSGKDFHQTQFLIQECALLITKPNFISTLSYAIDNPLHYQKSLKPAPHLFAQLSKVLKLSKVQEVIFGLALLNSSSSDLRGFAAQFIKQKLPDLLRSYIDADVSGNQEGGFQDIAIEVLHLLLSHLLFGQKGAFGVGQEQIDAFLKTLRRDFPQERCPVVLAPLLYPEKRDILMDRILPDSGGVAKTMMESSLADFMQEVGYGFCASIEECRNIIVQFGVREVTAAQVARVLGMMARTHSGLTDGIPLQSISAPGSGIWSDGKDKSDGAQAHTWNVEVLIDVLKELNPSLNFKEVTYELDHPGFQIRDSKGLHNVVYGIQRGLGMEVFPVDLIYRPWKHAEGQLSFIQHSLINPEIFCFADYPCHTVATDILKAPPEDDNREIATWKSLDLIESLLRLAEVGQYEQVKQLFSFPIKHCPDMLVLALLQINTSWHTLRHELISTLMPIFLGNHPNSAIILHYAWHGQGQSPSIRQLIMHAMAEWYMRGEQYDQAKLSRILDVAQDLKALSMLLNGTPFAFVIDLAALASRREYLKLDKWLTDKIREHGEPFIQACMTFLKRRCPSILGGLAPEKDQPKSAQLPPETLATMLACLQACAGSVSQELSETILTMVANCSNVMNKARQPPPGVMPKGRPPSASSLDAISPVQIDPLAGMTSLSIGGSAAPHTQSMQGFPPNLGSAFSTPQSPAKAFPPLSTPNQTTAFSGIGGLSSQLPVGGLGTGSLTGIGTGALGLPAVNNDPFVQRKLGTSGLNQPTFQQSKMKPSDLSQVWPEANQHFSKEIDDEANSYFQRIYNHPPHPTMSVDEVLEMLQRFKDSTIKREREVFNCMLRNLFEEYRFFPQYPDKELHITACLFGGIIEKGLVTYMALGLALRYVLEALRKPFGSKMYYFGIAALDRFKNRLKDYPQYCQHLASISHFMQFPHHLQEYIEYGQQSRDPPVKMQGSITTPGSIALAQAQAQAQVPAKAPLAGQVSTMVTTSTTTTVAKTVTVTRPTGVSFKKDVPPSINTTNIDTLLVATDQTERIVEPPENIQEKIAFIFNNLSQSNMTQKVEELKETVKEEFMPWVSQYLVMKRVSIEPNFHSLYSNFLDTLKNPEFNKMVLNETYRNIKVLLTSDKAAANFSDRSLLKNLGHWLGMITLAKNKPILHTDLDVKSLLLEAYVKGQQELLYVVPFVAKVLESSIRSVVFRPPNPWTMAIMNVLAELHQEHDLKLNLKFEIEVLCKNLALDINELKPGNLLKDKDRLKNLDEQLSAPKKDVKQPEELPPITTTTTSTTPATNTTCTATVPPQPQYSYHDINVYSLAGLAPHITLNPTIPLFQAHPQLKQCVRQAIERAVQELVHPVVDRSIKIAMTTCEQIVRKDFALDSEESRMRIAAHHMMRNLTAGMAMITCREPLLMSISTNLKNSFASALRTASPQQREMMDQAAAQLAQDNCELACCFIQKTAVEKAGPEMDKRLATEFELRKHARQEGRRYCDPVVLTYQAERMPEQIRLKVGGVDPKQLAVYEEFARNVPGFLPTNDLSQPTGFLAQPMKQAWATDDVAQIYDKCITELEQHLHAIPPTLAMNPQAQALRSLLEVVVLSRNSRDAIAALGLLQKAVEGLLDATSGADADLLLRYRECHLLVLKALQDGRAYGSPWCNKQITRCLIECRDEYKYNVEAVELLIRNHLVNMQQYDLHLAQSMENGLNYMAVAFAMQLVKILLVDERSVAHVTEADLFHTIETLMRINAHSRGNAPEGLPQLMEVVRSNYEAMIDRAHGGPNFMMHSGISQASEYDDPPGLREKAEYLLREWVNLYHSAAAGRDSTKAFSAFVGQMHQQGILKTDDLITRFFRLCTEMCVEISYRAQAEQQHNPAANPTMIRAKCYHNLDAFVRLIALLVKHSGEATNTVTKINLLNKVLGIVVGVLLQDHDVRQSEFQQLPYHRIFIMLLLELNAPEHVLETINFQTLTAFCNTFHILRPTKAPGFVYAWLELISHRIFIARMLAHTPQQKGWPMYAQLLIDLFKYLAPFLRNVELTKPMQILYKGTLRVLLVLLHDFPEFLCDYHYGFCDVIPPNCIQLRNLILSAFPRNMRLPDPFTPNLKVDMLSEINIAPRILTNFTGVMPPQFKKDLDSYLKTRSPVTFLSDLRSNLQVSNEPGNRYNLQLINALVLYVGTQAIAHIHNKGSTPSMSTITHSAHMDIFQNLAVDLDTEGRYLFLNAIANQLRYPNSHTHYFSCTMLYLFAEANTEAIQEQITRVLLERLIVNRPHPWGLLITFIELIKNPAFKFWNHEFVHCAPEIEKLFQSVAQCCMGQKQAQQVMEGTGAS
UniProt P67870: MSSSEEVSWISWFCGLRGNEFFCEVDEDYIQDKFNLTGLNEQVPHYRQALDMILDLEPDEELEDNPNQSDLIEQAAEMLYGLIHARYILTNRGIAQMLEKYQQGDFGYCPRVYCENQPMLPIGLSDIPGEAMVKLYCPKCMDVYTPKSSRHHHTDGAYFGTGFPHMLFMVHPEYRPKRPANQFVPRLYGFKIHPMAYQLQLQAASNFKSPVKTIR
UniProt Q06587: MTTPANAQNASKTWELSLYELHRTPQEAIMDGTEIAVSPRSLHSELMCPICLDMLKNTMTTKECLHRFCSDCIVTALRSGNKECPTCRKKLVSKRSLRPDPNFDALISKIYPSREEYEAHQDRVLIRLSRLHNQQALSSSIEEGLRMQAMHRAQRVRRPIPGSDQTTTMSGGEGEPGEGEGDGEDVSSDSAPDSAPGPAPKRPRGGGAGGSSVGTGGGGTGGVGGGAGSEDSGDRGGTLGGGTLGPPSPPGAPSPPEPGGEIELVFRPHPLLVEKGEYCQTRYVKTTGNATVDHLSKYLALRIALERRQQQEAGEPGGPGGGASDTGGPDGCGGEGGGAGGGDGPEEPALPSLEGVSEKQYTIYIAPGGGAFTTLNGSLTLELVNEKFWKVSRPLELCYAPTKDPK
UniProt Q93009: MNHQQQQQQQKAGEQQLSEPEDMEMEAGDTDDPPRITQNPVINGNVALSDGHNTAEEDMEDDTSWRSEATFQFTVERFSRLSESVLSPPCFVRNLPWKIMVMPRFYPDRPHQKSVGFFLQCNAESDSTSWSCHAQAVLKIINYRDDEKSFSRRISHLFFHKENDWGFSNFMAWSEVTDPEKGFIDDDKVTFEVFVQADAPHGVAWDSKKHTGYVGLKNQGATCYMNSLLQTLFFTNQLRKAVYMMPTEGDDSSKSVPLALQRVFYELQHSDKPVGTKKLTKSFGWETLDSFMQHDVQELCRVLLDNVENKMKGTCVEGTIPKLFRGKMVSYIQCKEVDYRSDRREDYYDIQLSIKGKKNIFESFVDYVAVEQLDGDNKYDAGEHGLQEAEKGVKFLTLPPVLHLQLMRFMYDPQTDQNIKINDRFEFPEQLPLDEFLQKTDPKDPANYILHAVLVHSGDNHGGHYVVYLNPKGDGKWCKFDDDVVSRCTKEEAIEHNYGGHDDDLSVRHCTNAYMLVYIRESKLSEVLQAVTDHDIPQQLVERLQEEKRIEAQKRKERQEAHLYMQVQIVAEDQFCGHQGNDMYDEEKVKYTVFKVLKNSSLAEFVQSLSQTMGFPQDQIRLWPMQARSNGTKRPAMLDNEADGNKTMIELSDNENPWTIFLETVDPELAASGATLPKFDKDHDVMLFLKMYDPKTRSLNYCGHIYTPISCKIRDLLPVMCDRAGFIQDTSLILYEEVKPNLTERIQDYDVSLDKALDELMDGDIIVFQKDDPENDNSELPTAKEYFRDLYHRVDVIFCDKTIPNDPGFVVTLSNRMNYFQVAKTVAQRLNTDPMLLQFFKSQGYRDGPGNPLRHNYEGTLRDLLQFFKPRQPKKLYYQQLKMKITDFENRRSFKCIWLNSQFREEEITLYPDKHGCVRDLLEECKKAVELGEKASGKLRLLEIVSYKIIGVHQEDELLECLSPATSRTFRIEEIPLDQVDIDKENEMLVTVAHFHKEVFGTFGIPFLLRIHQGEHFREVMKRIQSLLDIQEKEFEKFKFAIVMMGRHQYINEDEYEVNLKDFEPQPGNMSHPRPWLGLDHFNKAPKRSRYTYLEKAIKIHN
UniProt Q5H9F3: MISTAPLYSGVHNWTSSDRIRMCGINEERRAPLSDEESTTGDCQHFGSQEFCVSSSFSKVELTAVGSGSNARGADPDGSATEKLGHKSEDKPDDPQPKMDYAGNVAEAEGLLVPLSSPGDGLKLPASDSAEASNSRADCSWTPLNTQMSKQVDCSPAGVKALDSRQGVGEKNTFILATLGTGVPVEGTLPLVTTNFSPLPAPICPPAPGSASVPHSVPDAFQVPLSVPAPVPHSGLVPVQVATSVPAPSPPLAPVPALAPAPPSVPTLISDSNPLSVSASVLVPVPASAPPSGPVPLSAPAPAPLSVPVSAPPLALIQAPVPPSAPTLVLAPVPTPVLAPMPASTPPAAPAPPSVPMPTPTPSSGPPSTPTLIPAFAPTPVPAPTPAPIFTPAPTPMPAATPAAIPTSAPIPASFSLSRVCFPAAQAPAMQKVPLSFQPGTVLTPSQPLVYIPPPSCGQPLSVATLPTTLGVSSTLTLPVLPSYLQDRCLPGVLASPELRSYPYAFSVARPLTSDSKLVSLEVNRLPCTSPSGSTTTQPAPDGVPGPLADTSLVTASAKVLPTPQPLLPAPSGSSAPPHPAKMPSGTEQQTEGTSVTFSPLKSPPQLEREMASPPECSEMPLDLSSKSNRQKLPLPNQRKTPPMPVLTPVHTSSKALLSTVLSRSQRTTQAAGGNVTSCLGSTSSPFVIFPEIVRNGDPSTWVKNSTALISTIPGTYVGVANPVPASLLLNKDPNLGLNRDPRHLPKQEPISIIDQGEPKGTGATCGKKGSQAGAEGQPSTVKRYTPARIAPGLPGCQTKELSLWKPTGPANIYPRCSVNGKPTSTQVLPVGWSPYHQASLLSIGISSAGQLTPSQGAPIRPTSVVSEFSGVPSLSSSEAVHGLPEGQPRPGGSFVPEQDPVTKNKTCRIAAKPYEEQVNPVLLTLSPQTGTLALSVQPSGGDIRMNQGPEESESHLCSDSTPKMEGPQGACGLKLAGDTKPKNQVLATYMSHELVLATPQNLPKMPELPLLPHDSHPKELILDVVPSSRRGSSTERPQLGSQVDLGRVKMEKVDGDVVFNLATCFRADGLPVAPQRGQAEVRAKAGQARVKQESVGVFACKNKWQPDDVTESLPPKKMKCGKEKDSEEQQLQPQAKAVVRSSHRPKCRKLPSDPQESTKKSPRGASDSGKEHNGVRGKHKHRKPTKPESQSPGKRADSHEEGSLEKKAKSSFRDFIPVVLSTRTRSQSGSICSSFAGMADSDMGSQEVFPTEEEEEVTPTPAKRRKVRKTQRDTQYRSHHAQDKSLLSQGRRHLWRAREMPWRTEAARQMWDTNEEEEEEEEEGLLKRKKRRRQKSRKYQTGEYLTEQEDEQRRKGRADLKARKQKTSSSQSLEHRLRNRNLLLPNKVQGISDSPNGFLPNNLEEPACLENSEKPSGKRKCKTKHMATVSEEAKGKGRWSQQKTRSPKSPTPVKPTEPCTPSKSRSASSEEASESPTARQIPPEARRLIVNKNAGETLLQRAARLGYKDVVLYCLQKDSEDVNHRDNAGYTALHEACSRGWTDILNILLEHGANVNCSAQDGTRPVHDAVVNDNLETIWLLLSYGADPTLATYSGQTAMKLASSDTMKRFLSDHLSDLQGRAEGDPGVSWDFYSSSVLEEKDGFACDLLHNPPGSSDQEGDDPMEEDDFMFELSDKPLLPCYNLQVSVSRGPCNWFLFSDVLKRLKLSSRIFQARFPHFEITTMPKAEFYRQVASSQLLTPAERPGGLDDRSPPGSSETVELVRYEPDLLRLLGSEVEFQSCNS

Columns and labels:
Experiment in all cases: affinity purification with mass spectrometry
[1] = target: PCGF1 (human (endogenous in NT2)) (UniProt Q9BSM1)
[2] = target: T1, PCGF2 (human (endogenous in NT2)) (UniProt P35227)
T1 sequence: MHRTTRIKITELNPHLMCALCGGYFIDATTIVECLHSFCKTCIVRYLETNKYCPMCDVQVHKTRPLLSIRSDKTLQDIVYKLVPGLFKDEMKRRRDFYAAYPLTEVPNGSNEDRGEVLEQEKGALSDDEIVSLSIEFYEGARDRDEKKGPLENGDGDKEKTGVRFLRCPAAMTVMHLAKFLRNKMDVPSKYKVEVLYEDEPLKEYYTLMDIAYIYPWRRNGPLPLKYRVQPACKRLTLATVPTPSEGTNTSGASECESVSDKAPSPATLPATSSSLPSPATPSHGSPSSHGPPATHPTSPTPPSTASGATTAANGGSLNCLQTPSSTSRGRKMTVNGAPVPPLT

[3] = target: PCGF4 (human (endogenous in NT2)) (UniProt P35226)

CNOT1 (from UniProt A5YKK6 1-2376)
binding [1]: binds

CSNK2B (from UniProt P67870 1-215)
binding [2]: binds | binding [1]: binds | binding [3]: binds

RNF2 (from UniProt Q99496 1-336)
binding [2]: binds

SKP1 (from UniProt P63208 1-163)
binding [1]: binds

RING1A (from UniProt Q06587 1-406)
binding [2]: binds | binding [1]: binds | binding [3]: binds

CBX8 (from UniProt Q9HC52 1-389)
binding [2]: binds

USP7 (from UniProt Q93009 1-1102)
binding [2]: binds | binding [1]: binds | binding [3]: binds

SCMH1 (from UniProt Q96GD3 1-660)
binding [2]: binds | binding [3]: binds

SCML2 (from UniProt Q9UQR0 1-700)
binding [2]: binds | binding [3]: binds

BCORL1 (from UniProt Q5H9F3 1-1785)
binding [1]: binds

B1: CBX4 (protein, UniProt O00257 1-560)
chain: MELPAVGEHVFAVESIEKKRIRKGRVEYLVKWRGWSPKYNTWEPEENILDPRLLIAFQNRERQEQLMGYRKRGPKPKPLVVQVPTFARRSNVLTGLQDSSTDNRAKLDLGAQGKGQGHQYELNSKKHHQYQPHSKERAGKPPPPGKSGKYYYQLNSKKHHPYQPDPKMYDLQYQGGHKEAPSPTCPDLGAKSHPPDKWAQGAGAKGYLGAVKPLAGAAGAPGKGSEKGPPNGMMPAPKEAVTGNGIGGKMKIVKNKNKNGRIVIVMSKYMENGMQAVKIKSGEVAEGEARSPSHKKRAADERHPPADRTFKKAAGAEEKKVEAPPKRREEEVSGVSDPQPQDAGSRKLSPTKEAFGEQPLQLTTKPDLLAWDPARNTHPPSHHPHPHPHHHHHHHHHHHHAVGLNLSHVRKRCLSETHGEREPCKKRLTARSISTPTCLGGSPAAERPADLPPAAALPQPEVILLDSDLDEPIDLRCVKTRSEAGEPPSSLQVKPETPASAAVAVAAAAAPTTTAEKPPAEAQDEPAESLSEFKPFFGNIIITDVTANCLTVTFKEYVTV
binding [2]: binds | binding [3]: binds

B2: CNOT4 (protein, UniProt O95628 1-575)
chain: MSRSPDAKEDPVECPLCMEPLEIDDINFFPCTCGYQICRFCWHRIRTDENGLCPACRKPYPEDPAVYKPLSQEELQRIKNEKKQKQNERKQKISENRKHLASVRVVQKNLVFVVGLSQRLADPEVLKRPEYFGKFGKIHKVVINNSTSYAGSQGPSASAYVTYIRSEDALRAIQCVNNVVVDGRTLKASLGTTKYCSYFLKNMQCPKPDCMYLHELGDEAASFTKEEMQAGKHQEYEQKLLQELYKLNPNFLQLSTGSVDKNKNKVTPLQRYDTPIDKPSDSLSIGNGDNSQQISNSDTPSPPPGLSKSNPVIPISSSNHSARSPFEGAVTESQSLFSDNFRHPNPIPSGLPPFPSSPQTSSDWPTAPEPQSLFTSETIPVSSSTDWQAAFGFGSSKQPEDDLGFDPFDVTRKALADLIEKELSVQDQPSLSPTSLQNSSSHTTTAKGPGSGFLHPAAATNANSLNSTFSVLPQRFPQFQQHRAVYNSFSFPGQAARYPWMAFPRNSIMHLNHTANPTSNSNFLDLNLPPQHNTGLGGIPVAGEEEVKVSTMPLSTSSHSLQQGQQPTSLHTTVA
binding [1]: binds

B3: PHC1 (protein, UniProt P78364 1-1004)
chain: METESEQNSNSTNGSSSSGGSSRPQIAQMSLYERQAVQALQALQRQPNAAQYFHQFMLQQQLSNAQLHSLAAVQQATIAASRQASSPNTSTTQQQTTTTQASINLATTSAAQLISRSQSVSSPSATTLTQSVLLGNTTSPPLNQSQAQMYLRPQLGNLLQVNRTLGRNVPLASQLILMPNGAVAAVQQEVPSAQSPGVHADADQVQNLAVRNQQASAQGPQMQGSTQKAIPPGASPVSSLSQASSQALAVAQASSGATNQSLNLSQAGGGSGNSIPGSMGPGGGGQAHGGLGQLPSSGMGGGSCPRKGTGVVQPLPAAQTVTVSQGSQTEAESAAAKKAEADGSGQQNVGMNLTRTATPAPSQTLISSATYTQIQPHSLIQQQQQIHLQQKQVVIQQQIAIHHQQQFQHRQSQLLHTATHLQLAQQQQQQQQQQQQQQQPQATTLTAPQPPQVPPTQQVPPSQSQQQAQTLVVQPMLQSSPLSLPPDAAPKPPIPIQSKPPVAPIKPPQLGAAKMSAAQQPPPHIPVQVVGTRQPGTAQAQALGLAQLAAAVPTSRGMPGTVQSGQAHLASSPPSSQAPGALQECPPTLAPGMTLAPVQGTAHVVKGGATTSSPVVAQVPAAFYMQSVHLPGKPQTLAVKRKADSEEERDDVSTLGSMLPAKASPVAESPKVMDEKSSLGEKAESVANVNANTPSSELVALTPAPSVPPPTLAMVSRQMGDSKPPQAIVKPQILTHIIEGFVIQEGAEPFPVGCSQLLKESEKPLQTGLPTGLTENQSGGPLGVDSPSAELDKKANLLKCEYCGKYAPAEQFRGSKRFCSMTCAKRYNVSCSHQFRLKRKKMKEFQEANYARVRRRGPRRSSSDIARAKIQGKCHRGQEDSSRGSDNSSYDEALSPTSPGPLSVRAGHGERDLGNPNTAPPTPELHGINPVFLSSNPSRWSVEEVYEFIASLQGCQEIAEEFRSQEIDGQALLLLKEEHLMSAMNIKLGPALKICAKINVLKET
binding [2]: binds | binding [3]: binds

B4: PHC2 (protein, UniProt Q8IXK0 1-858)
chain: MENELPVPHTSSSACATSSTSGASSSSGCNNSSSGGSGRPTGPQISVYSGIPDRQTVQVIQQALHRQPSTAAQYLQQMYAAQQQHLMLQTAALQQQHLSSAQLQSLAAVQQASLVSNRQGSTSGSNVSAQAPAQSSSINLAASPAAAQLLNRAQSVNSAAASGIAQQAVLLGNTSSPALTASQAQMYLRAQMLIFTPTATVATVQPELGTGSPARPPTPAQVQNLTLRTQQTPAAAASGPTPTQPVLPSLALKPTPGGSQPLPTPAQSRNTAQASPAGAKPGIADSVMEPHKKGDGNSSVPGSMEGRAGLSRTVPAVAAHPLIAPAYAQLQPHQLLPQPSSKHLQPQFVIQQQPQPQQQQPPPQQSRPVLQAEPHPQLASVSPSVALQPSSEAHAMPLGPVTPALPLQCPTANLHKPGGSQQCHPPTPDTGPQNGHPEGVPHTPQRRFQHTSAVILQLQPASPPQQCVPDDWKEVAPGEKSVPETRSGPSPHQQAIVTAMPGGLPVPTSPNIQPSPAHETGQGIVHALTDLSSPGMTSGNGNSASSIAGTAPQNGENKPPQAIVKPQILTHVIEGFVIQEGAEPFPVGRSSLLVGNLKKKYAQGFLPEKLPQQDHTTTTDSEMEEPYLQESKEEGAPLKLKCELCGRVDFAYKFKRSKRFCSMACAKRYNVGCTKRVGLFHSDRSKLQKAGAATHNRRRASKASLPPLTKDTKKQPTGTVPLSVTAALQLTHSQEDSSRCSDNSSYEEPLSPISASSSTSRRRQGQRDLELPDMHMRDLVGMGHHFLPSEPTKWNVEDVYEFIRSLPGCQEIAEEFRAQEIDGQALLLLKEDHLMSAMNIKLGPALKIYARISMLKDS
binding [2]: binds | binding [3]: binds
